Data as given in US20240050435A1, “METHODS FOR TREATING CANCER” (Washington University, priority 2022, published 2024).
At least one structure is not confirmed: it was looked up by name or label, or the drawing left a doubt.

Legend:
[1] = test system: MOLM13 cells; assay: Decitabine treatment of MOLM13 cells for 4 days, assays of hypomethylation and CHK1 phosphorylation; format: cell-based, human; settings: MOLM13 cells treated with decitabine for 4 days
[2] = test system: wild-type MOLM13 cells; assay: Single-molecule DNA fiber assay of replication fork progression, wild-type cells; format: cell-based, human; settings: decitabine for 48 hours

Question: With `Nc1ncn([C@H]2C[C@H](O)[C@@H](CO)O2)c(=O)n1` [decitabine] as the compound, how does the global hypomethylation [1] read?
Answer: induced global hypomethylation

Question: What about the “phosphorylation of CHK1 (indicative of ATR activation)” value [1] of the same compound?
Answer: increased phosphorylation of CHK1

Question: And the replication fork length [2]?
Answer: but not wild-type MOLM13 cells
